# Test results from the supplement of paper PMC4371806.
# Whole data set: some 2,300 compounds, median “plate-normalized OD600 growth (mean of duplicates)” near 0.29, cut for the lowest 2% near 0.22. Some of the results follow.
# Tested on: Escherichia coli BW25113
# Test: plate-normalized OD600 growth (mean of duplicates) (OD600 (normalized)); higher = more growth (less inhibition)
# Details: 10 µM
# Method: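 E. coli BW25113 in LB (100 µl, 96-well, no shaking) was exposed to 10 µM of each compound from a ~30,000-member library and grown at 37°C for 24 h or 15°C for 48 h, in duplicate. Growth was read as OD600 and the duplicate ODs were normalized across screening plates to correct plate-to-plate variation. Hits were >3σ below the mean OD600 at 15°C and <2σ below the mean at 37°C.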
Structure (SMILES),"plate-normalized OD600 growth (temperature: 15°C, 48 h)","plate-normalized OD600 growth (temperature: 37°C, 24 h)"
COCc1cc(C)nc2sc3c(c12)N(C(C)=O)C(c1ccc(F)cc1)NC3=O (stereo not given),0.234,0.611
Cc1ccoc1C(=O)Nc1ccc2ccccc2c1,0.249,0.588
CCCCCCCCCCOc1ccc(C(=O)N/N=C/c2ccc(OC)cc2)cc1,0.229,0.632
Cc1cscc1S(=O)(=O)c1ccc(Cl)cc1,0.241,0.616
C[C@]12CC[C@H](O)CC1=CCC1C2CC[C@]2(C)/C(=N/NC(N)=O)CCC12 (stereo not given in full),0.249,0.631
O=C1CC(c2cccs2)Cc2nc(NCCN3CCOCC3)ncc21 (stereo not given),0.259,0.618
CCOc1cc(/C=N/NC(=Nc2ccccc2)c2ccccn2)ccc1O,0.221,0.629
N#Cc1c(N)nc2c(c1-c1cccs1)CCCCC2,0.265,0.639
CCOC(=O)c1c(CN2CCOCC2)n(C)c2ccc(OS(=O)(=O)c3ccc(C)cc3)cc12,0.244,0.619
O=C(NCc1csc(-c2cccs2)n1)C1=Cc2ccccc2OC1,0.243,0.593
COc1ccccc1N1C(=O)c2ccc(N)cc2C1=O,0.241,0.598
Cc1ccc(S(=O)(=O)Oc2cc(=O)n(C)c3ccccc23)cc1,0.225,0.653
CCOC(=O)COc1nc(-c2cccs2)cc(C(F)(F)F)n1,0.255,0.59
Cc1ccc(C2=Nc3ccccc3N=C(C(Cl)Cl)C2)cc1,0.25,0.629
CCCCCCCCOc1ccc(C(CC(N)=O)C(=O)O)cc1 (stereo not given),0.241,0.619
COc1cc(OC)nc([S+](C)[O-])n1 (stereo not given),0.242,0.631
O=C1c2ccccc2C(=O)C1c1ccc2ccccc2c1,0.238,0.613
Cc1ccc(S(=O)(=O)Nc2nnc(C)c(/C=C/c3ccc4ccccc4c3)n2)cc1,0.249,0.633
COc1ccc2c(c1)CCCN2C(=O)NC(=O)c1c(F)cccc1Cl,0.242,0.627
S=C(Nc1cccnc1)N1CCc2ccccc21,0.23,0.626
CCN(CC)C(=O)NC(=O)c1c(C)cc(Cl)nc1Cl,0.243,0.63
COc1ccc(NC(=O)C(=O)NCCN2CCN(C(=O)c3cccc(F)c3)CC2)cc1,0.259,0.619
CCOC(=O)C(=NC)C1=NC(C)(C)Cc2ccccc21,0.232,0.57
Cc1onc2c(=O)n(-c3ccccc3)nc(-c3ccccc3)c12,0.248,0.605
C/C(=N/O)c1sc2nc(C(F)(F)F)nn2c1C,0.231,0.608

Structure (SMILES),"plate-normalized OD600 growth (temperature: 15°C, 48 h)","plate-normalized OD600 growth (temperature: 37°C, 24 h)"
CC(NC(=O)C1C(=O)NC2(C)CC1c1ccccc1O2)c1ccccc1 (stereo not given),0.258,0.659
CC(=O)c1ccc(NC(=S)NC(=O)c2cccnc2)cc1,0.248,0.608
Clc1cccc(CN2CCN(Cc3ccco3)CC2)c1,0.237,0.636
COc1ccc2nc(NC(=O)CSc3nnc4n(N)cnn34)sc2c1,0.245,0.612
Cc1cc(C)n(-c2nc3ccccc3s2)n1,0.241,0.622
CC(=O)N1c2ccccc2C2=NNC(=S)NC21O (stereo not given),0.252,0.642
CC(C)(C)c1cc(CS)cc(C(C)(C)C)c1O,0.243,0.625
Cc1cc(N2CCCC2)ccc1/C=N/n1cnnc1,0.259,0.687
N#CC1=C(O)OC2(C(=O)Nc3ccccc32)C2=C1CCC2 (stereo not given),0.249,0.614
CC(C)(C)c1ccc(-c2nnnn2-c2ccccc2)cc1,0.225,0.638
O=C(CNC(=O)C(c1ccccc1)c1ccccc1)N/N=C/c1cccc(OC(=O)c2ccccc2Br)c1,0.258,0.641
CCc1c2c(nn1-c1cc(Cl)ccc1OC)CC(c1ccccc1)CC2=O (stereo not given),0.25,0.63
N=c1sccn1CC(O)c1ccccc1 (stereo not given),0.236,0.625
CSC(=NCc1cccnc1)NC#N,0.259,0.629
N#Cc1c(N)sc2c1CCCCC2,0.245,0.634
CCOc1ccc(CC(=Nc2ccccc2O)C2=C(O)CC(C)(C)CC2=O)cc1OCC,0.262,0.631
Cc1ccc(NC(=O)C2C3C=CCCCCC32)cc1 (stereo not given),0.248,0.617
Oc1ccc(C2=CSC3=NCCN23)cc1O,0.246,0.608
Cc1cc(=O)oc2n[nH]c(-c3ccccc3)c12,0.258,0.64
O=[N+]([O-])c1ccc(OCCCOc2ccc([N+](=O)[O-])cc2)cc1,0.238,0.596
CC1(C)C2CCC1(C)C(N/C(=C(/C(Cl)=C(Cl)Cl)[N+](=O)[O-])n1nnc3ccccc31)C2 (stereo not given),0.253,0.629
COc1cccc(NC(=O)CCCc2ccccc2)c1,0.249,0.634
O=C(O)c1sc2nc(-c3ccccc3)cc(-c3ccccc3)c2c1-n1cccc1,0.268,0.628
CC(C(=O)O)C(=O)c1cc(Cl)c(Cl)cc1Cl (stereo not given),0.215,0.63
ON=C(c1cccs1)c1cccs1,0.229,0.591

# Whole records from above.
# COc1cccc(NC(=O)CCCc2ccccc2)c1 in the list: plate-normalized OD600 growth (temperature: 15°C, 48 h): 0.249; plate-normalized OD600 growth (temperature: 37°C, 24 h): 0.634
# CC(C(=O)O)C(=O)c1cc(Cl)c(Cl)cc1Cl (stereo not given) in the list: plate-normalized OD600 growth (temperature: 15°C, 48 h): 0.215; plate-normalized OD600 growth (temperature: 37°C, 24 h): 0.63
# Cc1cscc1S(=O)(=O)c1ccc(Cl)cc1 in the list: plate-normalized OD600 growth (temperature: 15°C, 48 h): 0.241; plate-normalized OD600 growth (temperature: 37°C, 24 h): 0.616
# ON=C(c1cccs1)c1cccs1 in the list: plate-normalized OD600 growth (temperature: 15°C, 48 h): 0.229; plate-normalized OD600 growth (temperature: 37°C, 24 h): 0.591

# Carrying on.

Structure (SMILES),"plate-normalized OD600 growth (temperature: 15°C, 48 h)","plate-normalized OD600 growth (temperature: 37°C, 24 h)"
Cc1ccc(-n2nc3c([n+]2[O-])CCc2nonc2-3)cc1,0.243,0.608
O=C(Nc1ccccc1)C(O)C(O)C(=O)Nc1ccccc1 (stereo not given),0.239,0.609
OC1(c2ccc(F)cc2)Cc2ccccc2C2=NCCN21 (stereo not given),0.251,0.589
Nc1nnc(CCCCCc2nnc(N)s2)s1,0.248,0.621
OC1CCN(C(=S)Nc2ccccc2)CC1,0.246,0.61
O=C(Cc1c[nH]c2ccccc12)OCC(=O)c1ccc(F)cc1,0.257,0.613
O=C1CC(c2ccco2)c2ccc3ccccc3c2N1 (stereo not given),0.241,0.623
CC1(C)OC(=O)N(CCCCCCN2C(=O)OC(C)(C)C2(C)O)C1(C)O (stereo not given),0.197,0.652
COc1cc(/C=C2\NC(=O)NC2=O)ccc1O,0.247,0.622
CCC(Sc1nc2ccccc2s1)C(=O)Nc1nnc(C)s1 (stereo not given),0.255,0.658
COC(=O)c1cccc([N+](=O)[O-])c1-c1c(C(=O)OC)cccc1[N+](=O)[O-],0.236,0.619
CCCCC#Cc1ccc(C(=O)NNC(=O)Nc2cc(Cl)cc(Cl)c2)o1,0.256,0.61
Cc1ccc(NC(=O)CCN2CCN(c3ccccc3)CC2)cc1,0.26,0.612
C/C(CC(=O)Nc1ccc(Nc2ccccc2)cc1)=N\NC(=O)Cc1ccccc1,0.242,0.651
N#CC(C(=O)c1ccc(Cl)cc1Cl)c1nc2ccccc2[nH]1 (stereo not given),0.246,0.601
Cc1cc(Cl)nc(NC(=O)NS(=O)(=O)c2ccccc2NC(=O)C(F)(F)F)n1,0.233,0.611
COc1ccc2[nH]c(C)c(CCNS(=O)(=O)c3cc(Cl)ccc3Cl)c2c1,0.249,0.606
Cc1nn2c(c1-c1ccccc1)NC(=O)CC2=O,0.256,0.643
N#Cc1cc(I)c(C#N)c(I)c1,0.198,0.616
CCOC(=O)C1C(c2ccccc2)C(C(=O)OCC)C1c1ccccc1 (stereo not given),0.256,0.62
CCc1ccccc1NC(=O)CSc1nc2c(c(=O)n(C)c(=O)n2C)n1C,0.248,0.609
O=C(O)CC(CC(=O)O)c1ccc(C(F)(F)F)cc1,0.246,0.599
Cc1[nH]c2ccc(Cl)cc2c(=O)c1CN1CCC(C)CC1,0.239,0.59
Cc1cc(=O)n2c(-c3ccc(Cl)cc3)csc2n1,0.239,0.607
Cc1ccc(S(=O)(=O)Nc2ccc(C)c(Cl)c2)cc1,0.235,0.626

Structure (SMILES),"plate-normalized OD600 growth (temperature: 15°C, 48 h)","plate-normalized OD600 growth (temperature: 37°C, 24 h)"
c1ccc2c(c1)OCCCOc1ccccc1OCCCO2,0.251,0.607
COCc1cc(=O)[nH]c(Nc2nc3ccccc3s2)n1,0.243,0.605
CCOC(=O)c1cc(-c2ccc(/C=N/N3C(=O)C4C5C=CC(CC5)C4C3=O)o2)ccc1Cl (stereo not given),0.25,0.621
Cc1cccc(NC(=O)C(C)C(=O)c2ccccc2)c1 (stereo not given),0.256,0.608
N#CC(C#N)=CNc1cccc(N)n1,0.231,0.613
Cn1c(=O)c(-c2nc3ccc(N4CCOCC4)cc3[nH]2)c(O)c2cc(Cl)ccc21,0.251,0.624
O=c1[nH]cnc2ccc(NC(=S)NCc3ccc4c(c3)OCO4)cc12,0.255,0.613
COc1ccc(C(=O)NCC(=O)N/N=C(\C)c2cccc(N)c2)cc1OC,0.249,0.633
N=c1c(S(=O)(=O)c2ccccc2)c(N)c(CO)c2sc3ccccc3n12,0.236,0.601
CCOC(=O)C1=C(c2ccccc2)N=c2s/c(=C/c3cc(OC)c(OC)cc3Br)c(=O)n2C1c1c(OC)ccc2ccccc12 (stereo not given),0.255,0.661
COc1ccc(-c2ccc(C=C(C#N)C#N)s2)cc1,0.249,0.65
COc1ccc(/C=C/c2nc3sc4c(c3c(=O)o2)CCCC4)cc1OC,0.244,0.592
Cn1c2ccc(Br)cc2c2nnc(SCc3ccc4nonc4c3)nc21,0.25,0.62
COc1cc(C)nc(NC(=O)NS(=O)(=O)c2c(C)cc(Cl)nc2Cl)n1,0.243,0.649
COc1ccc(/C=N/NC(=O)c2ccc(C)o2)cc1Br,0.251,0.59
CCOC(=O)C1=C(C)N=c2s/c(=C/c3cc(Br)ccc3OC)c(=O)n2C1c1ccccc1 (stereo not given),0.249,0.61
Cc1onc(-c2ccccc2Cl)c1C(=O)Nc1ccc(S(=O)(=O)Nc2nccs2)cc1,0.246,0.614
CCOC(=O)C1=C(C)NC(=O)C(C(N)=O)C12CCCCC2 (stereo not given),0.237,0.601
CCOc1ccc(-n2nc3ccc(NC(=O)COc4ccccc4C)cc3n2)cc1,0.235,0.616
O=C(Nc1ccc(C(F)(F)F)cc1)Nc1ccccc1C(=O)O,0.277,0.634
CCOC(=O)C(=CNNS(=O)(=O)c1cc(C(F)(F)F)cc(C(F)(F)F)c1)C(=O)OCC,0.246,0.602
COC(=O)Cn1sc2c3c(ccc2c1=O)C(=O)c1ccccc1C3=O,0.247,0.652
CCOc1ccc(N2C(=O)/C(=C/c3ccc(Br)cc3)NC2=S)cc1,0.244,0.615
Cc1cc(C)c(C)c(C(=O)CCCC(=O)O)c1C,0.245,0.624
CCCN1C(=O)C(O)(C/C(C)=N\O)c2ccccc21 (stereo not given),0.263,0.615
